Results are given in words; binding and its absence hold for the method and conditions named. Some binding calls cover weakened binding; strength is not graded here. Each block holds one binder with its values, some of them ahead of it.
Legend:
[1] = target: Human C3dg-biotin (human) (UniProt P01024); test: SPR (BIAcore)
[2] = target: Human C3dg-biotin (human) (UniProt P01024); test: SPR, C3dg-biotin on streptavidin chip, 1:1 Langmuir fit
[3] = target: Human C3dg-biotin (human) (UniProt P01024); test: ELISA, wells coated with purified C3dg, anti-complement inhibitor antibodies
[4] = target: Human C3dg-biotin (human) (UniProt P01024); test: SPR, biotinylated C3dg on streptavidin BIAcore chip
[5] = target: Human C3dg-biotin (human) (UniProt P01024); test: SPR (referred to)

Amino acid sequences for entries named in this document (tags omitted). Residues count along the entry.
UniProt P01024, residues 955-1303: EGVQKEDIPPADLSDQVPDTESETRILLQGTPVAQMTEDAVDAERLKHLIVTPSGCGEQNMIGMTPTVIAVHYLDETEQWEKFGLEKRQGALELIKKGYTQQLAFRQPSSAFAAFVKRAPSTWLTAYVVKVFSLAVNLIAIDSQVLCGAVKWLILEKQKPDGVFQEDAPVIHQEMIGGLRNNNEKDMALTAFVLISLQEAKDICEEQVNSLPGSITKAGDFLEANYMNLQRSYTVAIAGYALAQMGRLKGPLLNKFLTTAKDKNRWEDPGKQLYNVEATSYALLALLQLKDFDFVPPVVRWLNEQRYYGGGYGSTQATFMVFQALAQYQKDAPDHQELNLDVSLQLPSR

- binding [1]: binds
- binding [2]: binds
- binding [3]: binds
- binding [4]: binds
B1: CD59-CR2 (protein)
chain: LQCYNCPNPTADCKTAVNCSSDFDACLITKAGLQVYNKCWKFEHCNFNDVTTRLRENELTYYCCKKDLCNFNEQLENSSGGGGSGGGGSGGGGSISCGSPPPILNGRISYYSTPIAVGTVIRYSCSGTFRLIGEKSLLCITKDKVDGTWDKPAPKCEYFNKYSSCPEPIVPGGYKIRGSTPYRHGDSVTFACKTNFSMNGNKSVWCQANNMWGPTRLPTCVSVFPLECPALPMIHNGHHTSENVGSIAPGLSVTYSCESGYLLVGEKIINCLSSGKWSAVPPTCEEARCKSLGRFPNGKVKEPPILRVGVTANFFCDEGYRLQGPPSSRC

- binding [1]: binds
- binding [2]: binds
- binding [3]: binds
- binding [5]: binds
- binding [4]: binds
B2: CR2-DAF (protein)
chain: ISCGSPPPILNGRISYYSTPIAVGTVIRYSCSGTFRLIGEKSLLCITKDKVDGTWDKPAPKCEYFNKYSSCPEPIVPGGYKIRGSTPYRHGDSVTFACKTNFSMNGNKSVWCQANNMWGPTRLPTCVSVFPLECPALPMIHNGHHTSENVGSIAPGLSVTYSCESGYLLVGEKIINCLSSGKWSAVPPTCEEARCKSLGRFPNGKVKEPPILRVGVTANFFCDEGYRLQGPPSSRCVIAGQGVAWTKMPVCGGGSGGGGSDCGLPPDVPNAQPALEGRTSFPEDTVITYKCEESFVKIPGEKDSVICLKGSQWSDIEEFCNRSCEVPTRLNSASLKQPYITQNYFPVGTVVEYECRPGYRREPSLSPKLTCLQNLKWSTAVEFCKKKSCPNPGEIRNGQIDVPGGILFGATISFSCNTGYKLFGSTSSFCLISGSSVQWSDPLPECREIYCPAPPQIDNGIIQGERDHYGYRQSVTYACNKGFTMIGEHSIYCTV

Source: patent US20080267980A1
